Results are given in words; binding and its absence hold for the method and conditions named. In cells and extracts the contact can be indirect. A result given as binding can be weak or reduced; the word gives no strength.

Chains of the proteins cited; added tags and fusions are not shown. Lines headed by an entry give the natural chain unless they say otherwise; changes in a name come on top.
UniProt P24001: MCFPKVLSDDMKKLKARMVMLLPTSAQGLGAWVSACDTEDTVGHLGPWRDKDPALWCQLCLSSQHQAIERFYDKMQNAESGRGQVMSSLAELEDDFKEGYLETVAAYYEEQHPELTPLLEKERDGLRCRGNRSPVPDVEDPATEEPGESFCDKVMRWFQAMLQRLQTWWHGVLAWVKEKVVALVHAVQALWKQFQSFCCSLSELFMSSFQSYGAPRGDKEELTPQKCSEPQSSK
UniProt Q9UI09: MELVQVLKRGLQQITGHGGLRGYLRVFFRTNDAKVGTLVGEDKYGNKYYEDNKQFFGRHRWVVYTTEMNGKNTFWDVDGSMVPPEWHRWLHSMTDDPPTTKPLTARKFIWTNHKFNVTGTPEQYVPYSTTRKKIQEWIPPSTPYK

Binding data for one substance are collected here from paper PMC8717606.

This test has as its target Interleukin 32 (IL32) (Homo sapiens) (UniProt P24001). Kind of test: co-IP; endogenous IL-32 pulled down by the same protocol in INA-6, H929 and JJN-3 cells; ATP5D and NDUFA12 detected by western blotting. (In general: In western blotting, separated proteins are transferred to a membrane and probed.)

“NADH:ubiquinone oxidoreductase subunit A12 (NDUFA12) (from UniProt Q9UI09 1-145)”: the binding entry is “binds”.
